The values below come from US20250075147A1, “FRAGRANCE AND FLAVOR COMPOSITIONS COMPRISING NEW FLAVOR AND FRAGRANCE INGREDIENTS” (priority 2023, published 2025).

Data set [1] concerns odor evaluation panel. As to the kind of experiment: Odor evaluation panel rating of odorants by Rate-All-That-Apply (RATA) method with 55-word odor lexicon, plus intensity and pleasantness. Also noted: species or system human. The conditions noted are these: for Floral: mean panelist score for odor label floral (RATA); for Fruity: mean panelist score for odor label fruity (RATA); for Spicy: mean panelist score for odor label spicy (RATA); for Sweet: mean panelist score for odor label sweet (RATA); for Pleasantness: mean panelist score for odor pleasantness.

The nature of data set [2]: Evaluation by trained and/or certified flavor or fragrance chemists or master perfumers; categorization by commercial prospect. The conditions noted are these: for Rating: category of commercial prospect, (A) highest > (B) > (C) > (D) lowest, (E) requires further study; for Rating (category of commercial prospect): evaluation by trained flavor or fragrance chemists or master perfumers.

With `CC(C)CN1CCOCC1` [Compound 409, 4-(2-methylpropyl)morpholine], in data set [1], the Floral was 0.133, the Fruity is given as 0.067, the Spicy was found to be 0 and the Sweet is recorded as 0.5. In data set [1], the Pleasantness worked out at 2.743. For the same molecule, the Rating entry in data set [2] is “(D)”.
On to `OC1CCCCCCC1` [Compound 184, cyclooctanol], for which, in data set [1], the Floral is 0.061, the Fruity was 0.758, the Spicy turned out to be 0 and the Sweet is recorded as 0.818. Moreover, the Pleasantness in data set [1] is 5.788. In addition, in data set [2], the Rating entry is “(C)”.
Regarding `COC(=O)[C@@H](C)Oc1ccc(O)cc1` [Compound 386, methyl (2R)-2-(4-hydroxyphenoxy)propanoate], in data set [1], the Floral came to 0.371, the Fruity was 0.257, the Spicy is recorded as 0.086 and the Sweet was found to be 0.971. The Pleasantness in data set [1] is 5.471. Further, the Rating result in data set [2] is recorded as “(D)”.
Turning to `O=C1CCN(Cc2ccccc2)C1` [Compound 558, 1-benzylpyrrolidin-3-one], in data set [1], the Floral was 0.3, the Fruity is 0.8, the Spicy amounted to 0.133 and the Sweet turned out to be 0.633. In addition, the Pleasantness in data set [1] is 5.69. Further, the Rating entry in data set [2] is reported as “(B)”.
As to `O=C1CC2CCC1C2` (stereo not drawn) [Compound 17, bicyclo[2.2.1]heptan-2-one], in data set [1], the Floral came out at 0, the Fruity is recorded as 0, the Spicy is on record as 0.229 and the Sweet is reported as 0.429. Besides, in data set [1], the Pleasantness came to 1.989. The Rating entry in data set [2] was “(D)”.
Turning to `C=Cc1ccncc1` [Compound 489, 4-ethenylpyridine], in data set [1], the Floral is reported as 0.677, the Fruity is on record as 0.097, the Spicy is 0.226 and the Sweet was 0.903. Also, in data set [1], the Pleasantness worked out at 4.461. For the same molecule, the Rating entry in data set [2] is listed as “(D)”.
Turning to `CC(C)(C)N=Cc1ccccc1` [Compound 89, N-tert-butyl-1-phenylmethanimine], in data set [1], the Floral amounted to 0.121, the Fruity was 0.758, the Spicy is given as 0.515 and the Sweet was found to be 1.424. In addition, the Pleasantness in data set [1] came to 4.527. Further, in data set [2], the Rating result is on record as “(D)”.
Regarding `CCOC(=O)C(=O)c1cccs1` [Compound 318, ethyl 2-oxo-2-thiophen-2-ylacetate], in data set [1], the Floral is reported as 0.062, the Fruity amounted to 0, the Spicy was determined as 0.281 and the Sweet turned out to be 0.188. In addition, in data set [1], the Pleasantness turned out to be 4.362. The Rating entry in data set [2] was “(D)”.
Regarding `C=CC1CCC(C=C)C(C=C)C1` (stereo not drawn) [Compound 464, 1,2,4-tris(ethenyl)cyclohexane], in data set [1], the Floral came out at 0.324, the Fruity is listed as 0.206, the Spicy is reported as 0.471 and the Sweet was determined as 0.588. Further, in data set [1], the Pleasantness was 5.071. Besides, the Rating result in data set [2] was “(B)”.
In the case of `C[C@]12C(=O)OC(=O)[C@H]1[C@H]1C=C[C@@H]2C1` [Compound 507, (1S,2R,6S,7R)-2-methyl-4-oxatricyclo[5.2.1.02,6]dec-8-ene-3,5-dione], in data set [1], the Floral was found to be 0.314, the Fruity is 0.4, the Spicy came to 0.257 and the Sweet was 0.314. For the same molecule, in data set [1], the Pleasantness is 5.034. In addition, in data set [2], the Rating result is recorded as “(D)”.
As to `CCOC(=O)COc1ccccc1OC` [Compound 593, ethyl 2-(2-methoxyphenoxy)acetate], in data set [1], the Floral was determined as 0.406, the Fruity came to 0.656, the Spicy is listed as 0.469 and the Sweet was determined as 1.75. The Pleasantness in data set [1] was determined as 5.947. For the same molecule, the “Rating (category of commercial prospect)” value in data set [2] is on record as “(B)”.
For the molecule `CCN(Cc1ccccc1)c1ccccc1` [Compound 457, N-benzyl-N-ethylaniline], in data set [1], the Floral is given as 1.743, the Fruity came to 0.6, the Spicy turned out to be 0.086 and the Sweet is 1.371. Besides, in data set [1], the Pleasantness came out at 6.134. Besides, the Rating entry in data set [2] is listed as “(D)”.
For the molecule `Cn1ccnc1` [Compound 620, 1-methylimidazole], in data set [1], the Floral is 0.194, the Fruity is given as 0.083, the Spicy amounted to 0 and the Sweet stood at 0.361. In addition, in data set [2], the “Rating (category of commercial prospect)” value was “(D)”.
`C/C(N)=C/C(=O)OC(C)C` [Compound 738, propan-2-yl (Z)-3-aminobut-2-enoate]: in data set [1], the Floral came to 0.344, the Fruity is listed as 0, the Spicy is listed as 0.406 and the Sweet is 0.094. Further, the Pleasantness in data set [1] amounted to 2.262. In addition, the “Rating (category of commercial prospect)” value in data set [2] is recorded as “(D)”.
As to `C#Cc1ccc(CCCCC)cc1` [Compound 780, 1-ethynyl-4-pentylbenzene], in data set [1], the Floral turned out to be 0.281, the Fruity turned out to be 0.469, the Spicy turned out to be 0.688 and the Sweet turned out to be 1.094. For the same molecule, the Pleasantness in data set [1] is listed as 5.678. Further, in data set [2], the “Rating (category of commercial prospect)” value is “(A)”.
Turning to `Cc1ccc([N+](=O)[O-])c(C)n1` [Compound 995, 2,6-dimethyl-3-nitropyridine], in data set [1], the Floral turned out to be 0, the Fruity was found to be 0, the Spicy turned out to be 0 and the Sweet is given as 0.774. Besides, in data set [1], the Pleasantness was 6.371. Further, in data set [2], the “Rating (category of commercial prospect)” value is “(A)”.
As for `COc1ccc2nc(C)ccc2c1` [Compound 906, 6-methoxy-2-methylquinoline], in data set [1], the Floral was determined as 0.367, the Fruity is on record as 0.7, the Spicy was 0.167 and the Sweet is recorded as 1.4. Further, the Pleasantness in data set [1] is reported as 4.68. For the same molecule, the “Rating (category of commercial prospect)” value in data set [2] was “(D)”.
Turning to `CC(C)(C)OC(=O)N1CC(=CC#N)C1` [Compound 405, tert-butyl 3-(cyanomethylidene)azetidine-1-carboxylate], in data set [1], the Floral was 0, the Fruity was determined as 0, the Spicy is reported as 0 and the Sweet is 0.25. The Rating result in data set [2] is recorded as “(D)”.
Regarding `COC(=O)c1ccnc(C#N)c1` [Compound 120, methyl 2-cyanopyridine-4-carboxylate], in data set [1], the Floral is 0, the Fruity was found to be 0.028, the Spicy turned out to be 0 and the Sweet is 0.083. Further, the Rating result in data set [2] is given as “(D)”.
With `CCCN1CCC(=O)CC1` [Compound 877, 1-propylpiperidin-4-one], in data set [1], the Floral is 0.029, the Fruity came out at 0.086, the Spicy is given as 0.029 and the Sweet turned out to be 0.029. In addition, in data set [1], the Pleasantness is recorded as 2.966. For the same molecule, the “Rating (category of commercial prospect)” value in data set [2] is given as “(C)”.
For `COC(=O)CCC(C(C)=O)C(C)=O` [Compound 285, methyl 4-acetyl-5-oxohexanoate], in data set [1], the Floral was determined as 0, the Fruity amounted to 0, the Spicy is listed as 0.219 and the Sweet is 0. For the same molecule, the Pleasantness in data set [1] was 4.834. Moreover, the Rating entry in data set [2] is on record as “(A)”.
